Measured values: the supplement of paper PMC6411743
± gives the standard deviation of the averaged measurements. The list shows a part of the results.

The chains behind the UniProt entries cited, without tags or fusion partners. Where a name states a change or a piece, a line headed by the entry shows the natural chain unless it says otherwise.
UniProt Q8TC12: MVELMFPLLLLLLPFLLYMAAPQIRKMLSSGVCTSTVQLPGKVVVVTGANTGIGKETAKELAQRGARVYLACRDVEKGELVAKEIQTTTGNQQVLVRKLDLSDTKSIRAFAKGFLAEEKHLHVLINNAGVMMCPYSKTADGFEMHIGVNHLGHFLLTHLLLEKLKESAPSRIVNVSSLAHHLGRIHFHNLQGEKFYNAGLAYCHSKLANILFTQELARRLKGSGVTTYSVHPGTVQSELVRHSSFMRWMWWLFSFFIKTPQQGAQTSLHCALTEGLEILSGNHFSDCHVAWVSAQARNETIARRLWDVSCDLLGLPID
UniProt Q8IZ81: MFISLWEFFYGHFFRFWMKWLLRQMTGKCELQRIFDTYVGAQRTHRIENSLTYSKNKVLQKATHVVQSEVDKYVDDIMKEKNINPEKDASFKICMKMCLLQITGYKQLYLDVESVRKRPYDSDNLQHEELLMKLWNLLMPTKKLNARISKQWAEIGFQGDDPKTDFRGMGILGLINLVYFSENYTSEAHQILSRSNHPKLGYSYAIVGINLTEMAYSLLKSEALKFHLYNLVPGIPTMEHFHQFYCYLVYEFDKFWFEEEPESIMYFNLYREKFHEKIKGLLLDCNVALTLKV
UniProt Q8TAP6: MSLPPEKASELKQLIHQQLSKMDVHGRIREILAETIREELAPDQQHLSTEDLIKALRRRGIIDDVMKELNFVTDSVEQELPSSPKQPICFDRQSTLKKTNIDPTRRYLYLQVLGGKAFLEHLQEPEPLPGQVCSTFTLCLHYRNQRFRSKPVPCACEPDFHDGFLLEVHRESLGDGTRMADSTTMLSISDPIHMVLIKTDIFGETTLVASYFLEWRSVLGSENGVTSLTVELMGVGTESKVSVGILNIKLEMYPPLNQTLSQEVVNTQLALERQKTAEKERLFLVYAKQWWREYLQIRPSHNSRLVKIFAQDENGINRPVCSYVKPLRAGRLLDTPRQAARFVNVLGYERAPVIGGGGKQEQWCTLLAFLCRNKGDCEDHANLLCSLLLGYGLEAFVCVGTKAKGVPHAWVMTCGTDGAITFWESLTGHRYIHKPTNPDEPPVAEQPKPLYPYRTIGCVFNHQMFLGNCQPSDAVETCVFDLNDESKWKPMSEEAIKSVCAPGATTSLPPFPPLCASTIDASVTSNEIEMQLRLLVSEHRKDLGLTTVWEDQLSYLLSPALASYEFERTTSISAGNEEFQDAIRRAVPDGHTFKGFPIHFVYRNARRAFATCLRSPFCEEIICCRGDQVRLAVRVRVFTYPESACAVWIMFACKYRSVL
UniProt Q8NCC3: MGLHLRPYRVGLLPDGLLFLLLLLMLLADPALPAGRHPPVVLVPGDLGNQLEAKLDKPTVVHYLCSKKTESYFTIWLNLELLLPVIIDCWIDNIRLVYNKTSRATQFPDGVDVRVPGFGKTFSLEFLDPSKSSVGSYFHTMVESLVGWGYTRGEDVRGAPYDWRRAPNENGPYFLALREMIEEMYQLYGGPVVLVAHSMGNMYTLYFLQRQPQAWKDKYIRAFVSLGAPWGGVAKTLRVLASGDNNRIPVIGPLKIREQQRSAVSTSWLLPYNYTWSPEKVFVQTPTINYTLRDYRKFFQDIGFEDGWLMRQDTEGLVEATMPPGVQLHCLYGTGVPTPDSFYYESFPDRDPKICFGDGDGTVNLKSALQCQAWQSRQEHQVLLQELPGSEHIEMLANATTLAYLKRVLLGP
UniProt Q8IWB7: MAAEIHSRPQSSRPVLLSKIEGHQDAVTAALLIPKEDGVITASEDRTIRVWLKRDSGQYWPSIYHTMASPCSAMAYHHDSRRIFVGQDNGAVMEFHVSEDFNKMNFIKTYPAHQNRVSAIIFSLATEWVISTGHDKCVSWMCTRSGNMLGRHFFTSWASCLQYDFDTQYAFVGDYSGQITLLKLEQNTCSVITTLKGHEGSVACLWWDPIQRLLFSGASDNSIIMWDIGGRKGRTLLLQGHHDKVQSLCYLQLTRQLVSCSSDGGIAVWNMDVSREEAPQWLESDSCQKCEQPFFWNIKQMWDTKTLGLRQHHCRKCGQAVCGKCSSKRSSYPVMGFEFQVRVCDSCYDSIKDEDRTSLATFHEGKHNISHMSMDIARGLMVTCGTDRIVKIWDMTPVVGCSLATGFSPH

Compound: Nc1nc2c(ncn2[C@@H]2O[C@H](COP(=O)(O)OP(=O)(O)OP(=O)(O)O)[C@@H](O)[C@H]2O)c(=O)[nH]1 [guanosine triphosphate]
Assay: NP40-soluble protein abundance relative to vehicle (solubility fold change) (ratio); higher = more soluble protein in presence of GTP
Description: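 Solubility proteome profiling in Jurkat crude lysate. Lysate was treated with Mg-GTP (0.1-10 mM) for 10 min at room temperature and 3 min at 37 °C, then solubilised with 0.8% NP40 and benzonase, followed by ultracentrifugation. Proteins were quantified by TMT10 LC-MS/MS; the value is the NP40-soluble abundance relative to the NP40-processed vehicle, from 3 independent experiments.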

| Target | NP40-soluble protein abundance (concentration: 0.1mM) | NP40-soluble protein abundance (concentration: 0.5mM) | NP40-soluble protein abundance (concentration: 1mM) | NP40-soluble protein abundance (concentration: 2mM) | NP40-soluble protein abundance (concentration: 4mM) | NP40-soluble protein abundance (concentration: 6mM) | NP40-soluble protein abundance (concentration: 8mM) | NP40-soluble protein abundance (concentration: 10mM) |
| --- | --- | --- | --- | --- | --- | --- | --- | --- |
| RDH11 (UniProt Q8TC12) | 1 ± 0.014 | 0.985 ± 0.024 | 0.911 ± 0.034 | 0.895 ± 0.051 | 0.867 ± 0.048 | 0.88 ± 0.015 | 0.824 ± 0.084 | 0.782 ± 0.082 |
| UniProt Q8IZ81 and related entries | 1.12 ± 0.15 | 1.15 ± 0.2 | 0.932 ± 0.066 | 0.934 ± 0.069 | 0.944 ± 0.063 | 0.877 ± 0.048 | 0.958 ± 0.13 | 0.802 ± 0.051 |
| UniProt Q8TAP6 and related entries | 1.03 ± 0.063 | 1.05 ± 0.075 | 1 ± 0.04 | 1.01 ± 0.097 | 1.01 ± 0.072 | 0.962 ± 0.052 | 0.977 ± 0.086 | 0.972 ± 0.068 |
| PLA2G15 (UniProt Q8NCC3) | 0.969 ± 0.083 | 0.968 ± 0.077 | 0.965 ± 0.033 | 0.948 ± 0.11 | 0.959 ± 0.066 | 0.925 ± 0.08 | 0.948 ± 0.044 | 0.959 ± 0.09 |
| WDFY1 (UniProt Q8IWB7) | 1.24 ± 0.16 | 1.21 ± 0.22 | 1.13 ± 0.15 | 1.1 ± 0.17 | 1.1 ± 0.15 | 1.05 ± 0.12 | 1.17 ± 0.3 | 1.1 ± 0.22 |
